The assay has as its target DAT (Homo sapiens, UniProt Q01959). As to the kind of experiment: DAT transporter assay (neurotransmitter transporter absorption assay). Format: cell-based. As for the experimental part: Bioactivity Test • I. D2 receptor affinity assay: The affinity of the compound to D2 receptor was determined by radioligand competition assay, and the cloned D2 receptor was expressed in HEK293 cell line. • II. D2 receptor function assay: The ability of the compound to antagonize the D2 receptor was determined using a calcium mobilization assay (FLIPR). • III. DAT receptor function assay: The ability of the compound to inhibit DAT was determined by neurotransmitter transporter absorption assay.
• HBSS1×, REPES 20 mM, BSA 0.1%.
• Lyophilized fluorescent dye 1 vial, Assay buffer 10 mL.
• BTCP—hydrochloride (Sigma)
• i) The medium was preheated in 37° C. water bath in advance for more than 30 minutes for later use. • j) The preheated medium was taken out, disinfected with 75% alcohol, and put into a biosafety cabinet. • k) The cultured cells were taken out from the […], and the medium was removed by a vacuum pump. 1× DPBS was added, incubated for a moment, and then removed by a vacuum pump. Appropriate amount of 0.05% trypsin-EDTA was added for cell digestion. The digestion was terminated by 10% FBS medium, and the cells were pipetted and dispersed. • l) The dispersed cells were transferred into a 50 mL centrifuge tube with a pipette. […]

The chains behind the UniProt entries cited, without tags or fusion partners.
UniProt Q01959, whole entry, species assumed: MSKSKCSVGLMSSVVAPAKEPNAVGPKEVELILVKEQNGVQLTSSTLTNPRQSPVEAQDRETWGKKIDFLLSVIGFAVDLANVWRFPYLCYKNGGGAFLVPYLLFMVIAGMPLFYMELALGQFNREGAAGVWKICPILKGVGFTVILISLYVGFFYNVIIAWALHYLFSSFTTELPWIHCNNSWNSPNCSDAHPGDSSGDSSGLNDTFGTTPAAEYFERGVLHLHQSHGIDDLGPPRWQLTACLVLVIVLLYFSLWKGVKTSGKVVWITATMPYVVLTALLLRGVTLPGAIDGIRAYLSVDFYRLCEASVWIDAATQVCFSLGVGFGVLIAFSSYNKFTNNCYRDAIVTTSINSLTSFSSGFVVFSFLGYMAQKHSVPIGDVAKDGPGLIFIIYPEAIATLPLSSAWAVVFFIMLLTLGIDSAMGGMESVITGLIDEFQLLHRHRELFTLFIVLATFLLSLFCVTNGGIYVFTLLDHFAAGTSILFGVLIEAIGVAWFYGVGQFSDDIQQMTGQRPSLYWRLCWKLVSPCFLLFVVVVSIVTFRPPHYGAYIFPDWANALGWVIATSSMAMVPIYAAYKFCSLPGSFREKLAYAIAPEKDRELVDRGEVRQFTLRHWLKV

Drawing on patent US20210024498A1, “TETRAHYDROPYRROLE COMPOUND, PREPARATION METHOD THEREFOR, PHARMACEUTICAL COMPOSITION CONTAINING SAME, AND USE THEREOF” (MEDICONNS (SHANGHAI) BIOPHARMACEUTICAL CO., LTD, priority 2017, published 2021), this text covers IC50 for one compound.

Bounds are passed on as bounds.

As a reminder, the IC50 is the concentration that inhibits the measured activity by half. A low value points to greater potency in that assay.

`O=C1CCc2ccc(OCCCCN3CCN(c4cccc(Cl)c4Cl)CC3)cc2N1` [Aripiprazole, reference compound] gave an IC50 above 10 µM.
